From paper PMC8264304 come the findings set out here.

Results are given in words; binding and its absence hold for the method and conditions named. Some entries that bind do so weakly or less than the wild type.

Test [1] concerns the target MexR (R70Q) of P. aeruginosa clinical isolate ARP36 (Pseudomonas aeruginosa (clinical isolate ARP36)) (UniProt P52003). Description: two-hybrid; bacterial two-hybrid system (Stratagene); mexR genes cloned into both pTRG (prey) and pBT (bait); interaction assessed by beta-galactosidase activity in the reporter strains.
Test [2] has as its target MexR of P. aeruginosa clinical isolate CSP18 (Pseudomonas aeruginosa (clinical isolate CSP18)) (UniProt P52003). The test is described as above.

On to “MexR (R70Q) of P. aeruginosa clinical isolate ARP36 (from UniProt P52003 1-147)”, for which the binding entry in test [1] was “binds”.

B1: MexR of P. aeruginosa clinical isolate CSP18 (protein, UniProt P52003 1-147)
chain: MNYPVNPDLMPALMAVFQHVRTRIQSELDCQRLDLTPPDVHVLKLIDEQRGLNLQDLGRQMCRDKALITRKIRELEGRNLVRRERNPSDQRSFQLFLTDEGLAIHQHAEAIMSRVHDELFAPLTPVEQATLVHLLDQCLAAQPLEDI
For the molecule B1, the binding result in test [2] and in test [1] was “binds” each time.
